Assay results published in the supplement of paper PMC10338343.
± gives the standard deviation. This is a selection; strong and weak results do not stand in their true shares. The uncertainty is large for many entries.

What follows are sequences tested on EfPiwi piRISC loaded with piRNA #1 (26 nt) (assay: pre-steady-state target cleavage rate (min^-1); guide: piRNA #1 5'p-UGAGGUAGUAGGUUGUAUAGUAUCCA; MIWI and MILI are mouse PIWI proteins and EfPiwi is from a freshwater sponge; tags in brackets are library labels; higher = faster piRNA-guided slicing of the target). Settings: auxiliary factor: 500 nM Ephydatia muelleri Gtsf1.
Summary of the method: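 The pre-steady-state cleavage rate was derived from a burst-and-steady-state fit of Cleave-'n-Seq data. For these assays, 1 nM active affinity-purified piRISC loaded with a single synthetic guide was mixed with […] a transcribed, DNA-blocked target RNA library in HEPES–potassium acetate buffer at 33 °C, with or without 500 nM GTSF1 partner protein, for 0–8 or 0–960 min. Sequencing counts of uncleaved targets were normalised to depth and to weakly complementary targets, and k3 was capped at 0.0001 min^-1 after three trials were pooled.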

| Sequence | pre-steady-state target cleavage rate |
| --- | --- |
| GGAGACCAUACUAUACUACCUACUUCCUCA | 0.00301 ± 0.0023 |
| GGAGACCUAACUAUACAACCUAGAACCUCA | 0.000316 ± 0.0088 |
| GGAGACCUUACUAUAGAUCCUACUACCUCA | 0.00117 ± 0.004 |
| GGAGACGAUAGCUAUACAACCUACUACCUCA | 0.0112 ± 0.0049 |
| GGAGUGGAUAGUAUACAUCCUACUACCUCA | 0.00444 ± 0.0024 |
| GGAGACGAUACUAUACAACUCUACUACCUCA | 0.00452 ± 0.0031 |
| GGAGACGAUUCUAUACAACCAACUACCUCA | 0.00258 ± 0.0018 |
| GGAGACCUAUCUAUACAACCUUCUUCCUCA | 0.000355 ± 0.0084 |
| GGAGACCAUACUAUACUACCUACUAGCUCA | 0.0033 ± 0.0038 |
| GGAGUGGAUUCUAUACAACCUACUACCACA | 0.00158 ± 0.0025 |
| GGAGACCAUACUAUACAACCUACUACGUCA | 0.0053 ± 0.0015 |
| GGAGACCUAUGUAUAACAACCUACUACCUCA | 0.00261 ± 0.0041 |
| GGAGACCUUACAUACAACCUACUACCUCA | 0.00863 ± 0.0045 |
| GGAGACCUAUGUUAUCAACCUACUACCUCA | 0.00119 ± 0.0074 |
| GGAGACCUUACUAUACAUCCAACUACCUCA | 0.00298 ± 0.0044 |
| GGAGAGGAUCACUAUACAACCUACUACCUCA | 0.00867 ± 0.0051 |
| GGAGACCAUACUUUACAACCUACUACCACA | 0.00231 ± 0.0038 |
| GGAGACCUAUGUAUACAACCUACUGCCUCA | 0.00182 ± 0.0051 |
| GGAGAGGAUAGUAUUCAACCUACUACCUCA | 0.0021 ± 0.0038 |
| GGAGACGAUACAUAACAACCUACUACCUCA | 0.0034 ± 0.0038 |

| Sequence | pre-steady-state target cleavage rate |
| --- | --- |
| GGAGACCUAUGAUAUCAACCUACUAGGUCA | 0.000391 ± 0.0098 |
| GGAGACCUAUGAUAUGUUGCUACUAGGUCA | 0.000578 ± 0.0081 |
| GGAGACCAUAGUUUACAACCUACUACCUCA | 0.0227 ± 0.0096 |
| GGAGUGGAUACUAUACAGCCUACUACCUCA | 0.216 ± 0.073 |
| GGAGAGGAUACUAAACAACCUACUACCACA | 0.00277 ± 0.002 |
| GGAGAGGAUACUAUACAAGCUUCUACCUCA | 0.0045 ± 0.0024 |
| GGAGACCAUACUAUACAACCUACUACCGUCA | 0.00677 ± 0.0025 |
| GGAGACCAUACUAUACAACCUACUACCACA | 0.00574 ± 0.002 |
| GGAGAGCAUACUAUAGAACCUACUACCUCA | 0.00245 ± 0.0032 |
| GGAGACCUUACUAUACAACCAUCUACCUCA | 0.0026 ± 0.0037 |
| GGAGACCUAUCUAUCACAACCUACUACCUCA | 0.00369 ± 0.0043 |
| GGAGACCAUACUAUACAAGCAACUACCUCA | 0.00176 ± 0.0039 |
| GGAGAGGAUACUAUACAAGCUAGUACCUCA | 0.00137 ± 0.0032 |
| GGAGACCUAUCUAUACAACCUACUACGUGA | 0.00237 ± 0.0033 |
| GGAGACGUUACUAUACAAGCUACUACCUCA | 0.00435 ± 0.002 |
| GGAGACCUAUGUAUACGACCUACUACCUCA | 0.00235 ± 0.004 |
| GGAGAGGAUACUAUACAACCCACUACCUCA | 0.00601 ± 0.0024 |
| GGAGUGGAUACUAUACAACCUAUCUACCUCA | 0.00584 ± 0.0027 |
| GGAGACCUAAGUAUACAACCUACUAGCUCA | 0.0028 ± 0.0037 |
| GGAGAGGAUACUAUACAACCUACUACCUAA | 0.0131 ± 0.0058 |

Copied from the list:
pre-steady-state target cleavage rate with GGAGACCUUACUAUACAUCCAACUACCUCA is entered as 0.00298 ± 0.0044
pre-steady-state target cleavage rate with GGAGAGGAUACUAUACAACCUACUACCUAA is entered as 0.0131 ± 0.0058
